Values from PubChem BioAssay AID1259308 (NCATS, 2017).

- Aim: 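Genes whose loss raises luciferase production in HEK293 cells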 (primary screen)
- System: human HEK293 embryonic kidney cells stably expressing firefly luciferase (HEK-CMV-Luc2-Hygro)
- Knock-down reagent: single siRNA against human genes, 0.8 pmol siRNA per well
- Duration: 72 h
- Measurement: 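Luciferase light (ONE-Glo) measured on one replicate plate set and viability (CellTiter-Glo) on the other, scaled to a negative control siRNA, with robust z-scores and luciferase per cell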
- Scale: total luciferase, z-score: higher = more reporter protein produced
- Call rule: 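Active when the median/MAD z-score for overall luciferase is greater than 3; a gene was taken forward for validation with new siRNAs if at least two of its three siRNAs passed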
- Calls: active = raised luciferase; inactive = no rise
Shown is one part, drawn at random, of about 59,000 reagents tested. About 1,510 of them (2.6%) count as active. 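Calls use total luciferase alone and ignore viability, so some active siRNAs may act by altering cell number.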 The numbers tell different reagents against one gene apart. Not all columns of the deposit are shown.

With knock-down of KCNK6 #1, the screen gave total luciferase, z-score 0.0825; inactive.
After knock-down of KCNK6 #2, the screen gave total luciferase, z-score 2.76; inactive.
KCNK6 #3 scored total luciferase, z-score -3; inactive.
Against ZBTB22 #1, the entry reads total luciferase, z-score 0.606; inactive.
ZBTB22 #2 gave total luciferase, z-score 0.937; inactive.
Against ZBTB22 #3 the deposit lists total luciferase, z-score 0.452; inactive.
Depletion of CCDC144NL #1 gave: total luciferase, z-score -1.01; inactive.
CCDC144NL #2 gave total luciferase, z-score 0.737; inactive.
CCDC144NL #3 gave total luciferase, z-score 0.164; inactive.
After knock-down of C1orf185 #1 the results were total luciferase, z-score 0.741; inactive.
Depletion of C1orf185 #2 came out at: total luciferase, z-score -0.691; inactive.
Knock-down of C1orf185 #3 came out at: total luciferase, z-score -0.084; inactive.
CADM4 #1 gave total luciferase, z-score -1.1; inactive.
Knock-down of CADM4 #2 came out at: total luciferase, z-score -0.851; inactive.
For CADM4 #3 the deposit lists total luciferase, z-score -0.941; inactive.

Individual results from the list:
For “call”, KCNK6 #3 has inactive
CADM4 #2, call → inactive
Result for CCDC144NL #3 in “call”: inactive
Result of CCDC144NL #1 under “total luciferase, z-score”: -1.01

Further reagents follow:
After knock-down of EPHA4 #1, the record shows total luciferase, z-score 0.337; inactive.
After knock-down of EPHA4 #2 the results were total luciferase, z-score 0.283; inactive.
With knock-down of EPHA4 #3, the record shows total luciferase, z-score -1.15; inactive.
CFAP61 #1 scored total luciferase, z-score -0.272; inactive.
Against CFAP61 #2, the values are total luciferase, z-score -1.54; inactive.
With knock-down of CFAP61 #3 the results were total luciferase, z-score -1.39; inactive.
Against KRTAP17-1 #1, the entry reads total luciferase, z-score -0.252; inactive.
KRTAP17-1 #2 gave total luciferase, z-score 1.07; inactive.
With knock-down of KRTAP17-1 #3, the record shows total luciferase, z-score -1.95; inactive.
REX1BD #1 scored total luciferase, z-score -0.674; inactive.
With knock-down of REX1BD #2 the results were total luciferase, z-score 0.709; inactive.
Against REX1BD #3, the entry reads total luciferase, z-score 0.431; inactive.
With knock-down of GAL #1, the record shows total luciferase, z-score 3.17; active.
With knock-down of GAL #2, the screen gave total luciferase, z-score 0.537; inactive.
GAL #3 gave total luciferase, z-score -0.586; inactive.
Knock-down of P2RY8 #1 gave: total luciferase, z-score -0.129; inactive.
Silencing of P2RY8 #2 resulted in: total luciferase, z-score -1.66; inactive.
P2RY8 #3 showed total luciferase, z-score -0.394; inactive.
